Data as given in PubChem BioAssay AID504793 (Drosophila RNAi Screening Center, 2011).
In all, the deposit lists about 23,000 reagents; below is a random part of those with a known target gene and a result. In the full data, 62 (0.27%) are marked active. 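Calls come from follow-up tests whose scores are not deposited, so confirmed genes may have low counts here; counts are not normalised per plate.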 The raw values are shown without normalisation. Names joined by + are all predicted targets of the reagent.

- Assay: 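Genes required for cells to halt at G2/M after double-strand DNA breaks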 (primary screen)
- System: Drosophila S2R+ cells
- Knock-down reagent: long dsRNA against Drosophila genes, about 0.25 µg dsRNA per well
- Time to read-out: 4 days of dsRNA, then 4 hours of drug before read-out
- Treatment: doxorubicin 0.5 µM for 4 hours to cause double-strand breaks, in cells also given a low, harmless dose of dsRNA against nbs to sensitise the assay
- Read-out: 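Mitotic index as the number of phospho-histone H3-positive cells in each well following doxorubicin, given as raw counts without normalisation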
- Direction: mitotic cells: higher = more cells in mitosis, weaker G2 arrest
- Call rule: 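a call needs confirmation in secondary tests, with other dsRNAs and a check of mitotic timing without damage, not just a high primary count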
- Calls: active = confirmed in follow-up tests; inactive = not confirmed

predicted target | amplicon | mitotic cells, replicate 1 | mitotic cells, replicate 2 | call
Fer1HCH (GeneID 46415) | DRSC16671 | 12 | – | inactive
Fer1HCH (GeneID 46415) | DRSC39138 | 9 | – | inactive
pug (GeneID 41279) | DRSC17036 | 6 | – | inactive
pug (GeneID 41279) | DRSC29896 | 10 | – | inactive
MBD-like (GeneID 41151) | DRSC16996 | 4 | – | inactive
CG16854 (GeneID 34539) | DRSC02536 | 2 | – | inactive
kug (GeneID 40191) | DRSC10911 | 4 | – | inactive
CG42258 (GeneID 32196) | DRSC19741 | 8 | – | inactive
CG42258 (GeneID 32196) | DRSC23161 | 14 | – | inactive
CG42258 (GeneID 32196) | DRSC27710 | 9 | – | inactive
CG42258 (GeneID 32196) | DRSC28451 | 3 | – | inactive
Cyp4p1 (GeneID 45524) | DRSC07372 | 3 | – | inactive
Cyp4p1 (GeneID 45524) | DRSC26036 | 1 | – | inactive
CG32756 (GeneID 318193) | DRSC23271 | 9 | – | inactive
CG32756 (GeneID 318193) | DRSC25978 | 8 | – | inactive
Npc2f (GeneID 42864) | DRSC15980 | 3 | – | inactive
CG13893 (GeneID 38074) | DRSC08363 | 3 | – | inactive
MED26 (GeneID 43816) | DRSC17126 | 19 | – | inactive
MED26 (GeneID 43816) | DRSC17147 | 15 | – | inactive
MED26 (GeneID 43816) | DRSC17148 | 12 | – | inactive
bai (GeneID 42996) | DRSC14388 | 12 | – | inactive
Mnr (GeneID 33098) | DRSC20549 | 3 | – | inactive
Mnr (GeneID 33098) | DRSC20550 | 12 | 12 | inactive
Mnr (GeneID 33098) | DRSC22441 | 8 | – | inactive
CG33483 (GeneID 2768693) | DRSC14019 | 7 | – | inactive
sphinx1 (GeneID 318005) | DRSC10993 | 3 | – | inactive
sphinx1 (GeneID 318005) | DRSC24818 | 15 | – | inactive
adp (GeneID 37073) | DRSC06916 | 2 | – | inactive
fz2 (GeneID 40090) | DRSC10087 | – | 12 | inactive
fz2 (GeneID 40090) | DRSC11349 | 3 | – | inactive
CG5397 (GeneID 33313) | DRSC00683 | 2 | – | inactive
CG5397 (GeneID 33313) | DRSC28535 | 4 | – | inactive
CG13544 (GeneID 37673) | DRSC04186 | 4 | – | inactive
CG13544 (GeneID 37673) | DRSC30038 | 8 | – | inactive
Gyg (GeneID 37419) | DRSC03850 | 15 | – | inactive
Gyg (GeneID 37419) | DRSC04556 | 3 | – | inactive
Gyg (GeneID 37419) | DRSC28959 | 3 | – | inactive
Calr (GeneID 41166) | DRSC16614 | 4 | – | inactive
Calr (GeneID 41166) | DRSC29891 | 11 | – | inactive
dunk (GeneID 4379900) | DRSC36514 | 9 | – | inactive
dunk (GeneID 4379900) | DRSC36515 | 10 | – | inactive
Phk-3 (GeneID 37997) | DRSC04547 | 5 | – | inactive
ens (GeneID 38491) | DRSC08454 | 4 | – | inactive
ens (GeneID 38491) | DRSC25507 | 5 | – | inactive
CG34286 (GeneID 5740178) | DRSC21790 | 10 | – | inactive
CG6171 (GeneID 41872) | DRSC15982 | 4 | – | inactive
tHMG1 (GeneID 42650) | DRSC16181 | 10 | – | inactive
CAP (GeneID 36084) | DRSC06743 | 4 | – | inactive
CAP (GeneID 36084) | DRSC06744 | 6 | – | inactive
CAP (GeneID 36084) | DRSC06745 | 4 | – | inactive
CAP (GeneID 36084) | DRSC06846 | 9 | – | inactive
CG10102 (retired record) (GeneID 36596) | DRSC05963 | 6 | – | inactive
Gr61a (GeneID 38098) | DRSC08358 | 4 | – | inactive
CG7653 (GeneID 34935) | DRSC01886 | 1 | – | inactive
CG13248 (GeneID 40254) | DRSC11696 | 6 | – | inactive
CG13248 (GeneID 40254) | DRSC24446 | 6 | – | inactive
OstDelta (GeneID 37029) | DRSC06980 | 6 | – | inactive
OstDelta (GeneID 37029) | DRSC27205 | 7 | – | inactive
Cyp6a14 (retired record) (GeneID 8674017) | DRSC07376 | 5 | – | inactive
Cyp6a14 (retired record) (GeneID 8674017) | DRSC24704 | 5 | – | inactive
Hsp70Bb + Hsp70Bbb | DRSC15885 | 7 | – | inactive
RpL10 (GeneID 43864) | DRSC11947 | 2 | – | inactive
Mulk (GeneID 326168) | DRSC02658 | 3 | – | inactive
CG3987 (GeneID 41822) | DRSC15531 | 8 | – | inactive
CG30284 (GeneID 246527) | DRSC22150 | 9 | – | inactive
Mtpalpha (GeneID 34276) | DRSC01994 | 9 | – | inactive
Jheh1 (GeneID 251984) | DRSC06529 | 7 | – | inactive
Jheh1 (GeneID 251984) | DRSC25526 | 9 | – | inactive
CG18675 (GeneID 50169) | DRSC08536 | 1 | – | inactive
Efhc1.1 (GeneID 32528) | DRSC20135 | 15 | – | inactive
gce (GeneID 32457) | DRSC19613 | 11 | – | inactive
gce (GeneID 32457) | DRSC19974 | 11 | – | inactive
gce (GeneID 32457) | DRSC23808 | 6 | – | inactive
gce (GeneID 32457) | DRSC25266 | 5 | – | inactive
betaGlu (GeneID 43746) | DRSC15419 | 5 | – | inactive
betaGlu (GeneID 43746) | DRSC24889 | 5 | – | inactive
RFeSP (GeneID 44390) | DRSC00702 | 11 | – | inactive
RFeSP (GeneID 44390) | DRSC27607 | 3 | – | inactive
TotZ (GeneID 117459) | DRSC13450 | 21 | – | inactive
bumpel (GeneID 41368) | DRSC16100 | 3 | – | inactive
CG14854 (GeneID 41761) | DRSC14978 | 4 | – | inactive
CG15531 (GeneID 43592) | DRSC15068 | 5 | – | inactive
CG15531 (GeneID 43592) | DRSC24882 | 2 | – | inactive
mAChR-B (GeneID 40955) | DRSC16345 | 7 | – | inactive
mAChR-B (GeneID 40955) | DRSC26738 | 6 | – | inactive
CG15172 (GeneID 35167) | DRSC02473 | 2 | – | inactive
CG15172 (GeneID 35167) | DRSC27372 | 6 | – | inactive
CG3184 (GeneID 31608) | DRSC18289 | 3 | – | inactive
CG12398 (GeneID 32422) | DRSC19454 | 11 | – | inactive
Zdhhc8 (GeneID 31887) | DRSC18044 | 7 | – | inactive
Zdhhc8 (GeneID 31887) | DRSC18122 | 11 | – | inactive
CG4793 (GeneID 34941) | DRSC01966 | 8 | – | inactive
Pu (GeneID 37415) | DRSC04645 | 10 | – | inactive
Pu (GeneID 37415) | DRSC29066 | 4 | – | inactive
eIF2beta (GeneID 39433) | DRSC11341 | 8 | – | inactive
eIF2beta (GeneID 39433) | DRSC28025 | – | – | inactive
CG3526 (GeneID 31277) | DRSC17240 | 62 | – | inactive
CG3526 (GeneID 31277) | DRSC18636 | 8 | – | inactive
CG3526 (GeneID 31277) | DRSC24423 | 9 | – | inactive
Nagk (GeneID 41863) | DRSC15994 | 3 | – | inactive
CG7448 (retired record) (GeneID 40440) | DRSC11828 | 2 | – | inactive
CG7448 (retired record) (GeneID 40440) | DRSC22485 | 12 | – | inactive
Srg2 + CG42826 | DRSC10681 | 10 | – | inactive
Srg2 + CG42826 | DRSC10682 | 6 | – | inactive
Srg2 + CG42826 | DRSC24667 | 4 | – | inactive
Vha16-4 + CG15614 | DRSC07321 | 5 | – | inactive
Snap25 (GeneID 3355084) | DRSC21228 | 3 | – | inactive
Snap25 (GeneID 3355084) | DRSC21236 | 14 | 11 | inactive
CG13751 (GeneID 35879) | DRSC06422 | 5 | – | inactive
CG8112 (GeneID 41033) | DRSC16377 | 3 | – | inactive

17 neighbouring entries already listed, quoted:
predicted target | amplicon | mitotic cells, replicate 1 | mitotic cells, replicate 2 | call
gce (GeneID 32457) | DRSC19613 | 11 | – | inactive
gce (GeneID 32457) | DRSC19974 | 11 | – | inactive
gce (GeneID 32457) | DRSC23808 | 6 | – | inactive
gce (GeneID 32457) | DRSC25266 | 5 | – | inactive
betaGlu (GeneID 43746) | DRSC15419 | 5 | – | inactive
betaGlu (GeneID 43746) | DRSC24889 | 5 | – | inactive
RFeSP (GeneID 44390) | DRSC00702 | 11 | – | inactive
RFeSP (GeneID 44390) | DRSC27607 | 3 | – | inactive
TotZ (GeneID 117459) | DRSC13450 | 21 | – | inactive
bumpel (GeneID 41368) | DRSC16100 | 3 | – | inactive
CG14854 (GeneID 41761) | DRSC14978 | 4 | – | inactive
CG15531 (GeneID 43592) | DRSC15068 | 5 | – | inactive
CG15531 (GeneID 43592) | DRSC24882 | 2 | – | inactive
mAChR-B (GeneID 40955) | DRSC16345 | 7 | – | inactive
mAChR-B (GeneID 40955) | DRSC26738 | 6 | – | inactive
CG15172 (GeneID 35167) | DRSC02473 | 2 | – | inactive
CG15172 (GeneID 35167) | DRSC27372 | 6 | – | inactive
